These are yes or no findings as the source states them, for the method shown. In cells and extracts the contact can be indirect. Some entries that bind do so weakly or less than the wild type. Tags and fused reporters may be left off the sequences shown.
Key:
[1] = biological target: T1, CCDC39-HA (Coiled-Coil Domain Containing 39, tagged at its C-terminus with HA) (UniProt Q9UFE4); assay: co-immunoprecipitation with CCDC39-HA in HEK293 cells, western blot (figure legend)
T1 sequence (looked up): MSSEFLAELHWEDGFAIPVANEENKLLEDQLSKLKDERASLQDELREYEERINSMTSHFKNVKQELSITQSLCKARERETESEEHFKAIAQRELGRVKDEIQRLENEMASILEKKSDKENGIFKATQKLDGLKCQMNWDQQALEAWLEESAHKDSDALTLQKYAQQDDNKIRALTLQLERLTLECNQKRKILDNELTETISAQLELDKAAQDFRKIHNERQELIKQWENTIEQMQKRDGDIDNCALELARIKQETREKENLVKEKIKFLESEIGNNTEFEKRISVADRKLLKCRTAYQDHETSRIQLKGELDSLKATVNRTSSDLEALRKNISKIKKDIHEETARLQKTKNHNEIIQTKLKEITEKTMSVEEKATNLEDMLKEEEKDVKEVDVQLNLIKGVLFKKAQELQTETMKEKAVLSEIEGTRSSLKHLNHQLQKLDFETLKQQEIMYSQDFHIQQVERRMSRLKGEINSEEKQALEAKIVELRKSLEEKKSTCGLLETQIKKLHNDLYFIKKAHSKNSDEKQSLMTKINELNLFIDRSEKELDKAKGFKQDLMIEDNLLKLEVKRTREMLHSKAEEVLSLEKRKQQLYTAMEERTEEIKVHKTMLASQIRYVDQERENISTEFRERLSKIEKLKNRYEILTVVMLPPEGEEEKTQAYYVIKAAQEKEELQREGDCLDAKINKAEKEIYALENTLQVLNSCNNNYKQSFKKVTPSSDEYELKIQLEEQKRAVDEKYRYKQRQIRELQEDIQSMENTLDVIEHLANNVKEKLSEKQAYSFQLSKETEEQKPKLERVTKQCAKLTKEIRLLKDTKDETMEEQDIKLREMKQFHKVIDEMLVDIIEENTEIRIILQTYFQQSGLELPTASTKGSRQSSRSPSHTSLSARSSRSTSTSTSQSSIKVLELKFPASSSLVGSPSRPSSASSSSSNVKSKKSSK

[2] = biological target: T1, CCDC39-HA (Coiled-Coil Domain Containing 39, tagged at its C-terminus with HA); assay: co-immunoprecipitation: HA magnetic beads on HEK293T lysate, anti-Flag western blot

B1: CCDC40^WT-Flag (wild type coiled-coil domain containing 40, tagged at its C-terminus with Flag) (protein, UniProt Q4G0X9 1-1142, looked up, not shown: small tags and cut ends)
chain: MAEPGGAAGRSHPEDGSASEGEKEGNNESHMVSPPEKDDGQKGEEAVGSTEHPEEVTTQAEAAIEEGEVETEGEAAVEGEEEAVSYGDAESEEEYYYTETSSPEGQISAADTTYPYFSPPQELPGEEAYDSVSGEAGLQGFQQEATGPPESRERRVTSPEPSHGVLGPSEQMGQVTSGPAVGRLTGSTEEPQGQVLPMGVQHRFRLSHGSDIESSDLEEFVSQEPVIPPGVPDAHPREGDLPVFQDQIQQPSTEEGAMAERVESEGSDEEAEDEGSQLVVLDPDHPLMVRFQAALKNYLNRQIEKLKLDLQELVVATKQSRAQRQELGVNLYEVQQHLVHLQKLLEKSHDRHAMASSERRQKEEELQAARALYTKTCAAANEERKKLAALQTEMENLALHLFYMQNIDQDMRDDIRVMTQVVKKAETERIRAEIEKKKQDLYVDQLTTRAQQLEEDIALFEAQYLAQAEDTRILRKAVSEACTEIDAISVEKRRIMQQWASSLVGMKHRDEAHRAVLEALRGCQHQAKSTDGEIEAYKKSIMKEEEKNEKLASILNRTETEATLLQKLTTQCLTKQVALQSQFNTYRLTLQDTEDALSQDQLEQMILTEELQAIRQAIQGELELRRKTDAAIREKLQEHMTSNKTTKYFNQLILRLQKEKTNMMTHLSKINGDIAQTTLDITHTSSRLDAHQKTLVELDQDVKKVNELITNSQSEISRRTILIERKQGLINFLNKQLERMVSELGGEEVGPLELEIKRLSKLIDEHDGKAVQAQVTWLRLQQEMVKVTQEQEEQLASLDASKKELHIMEQKKLRVESKIEQEKKEQKEIEHHMKDLDNDLKKLNMLMNKNRCSSEELEQNNRVTENEFVRSLKASERETIKMQDKLNQLSEEKATLLNQLVEAEHQIMLWEKKIQLAKEMRSSVDSEIGQTEIRAMKGEIHRMKVRLGQLLKQQEKMIRAMELAVARRETVTTQAEGQRKMDRKALTRTDFHHKQLELRRKIRDVRKATDECTKTVLELEETQRNVSSSLLEKQEKLSVIQADFDTLEADLTRLGALKRQNLSEIVALQTRLKHLQAVKEGRYVFLFRSKQSLVLERQRLDKRLALIATILDRVRDEYPQFQEALHKVSQMIANKLESPGPS
In the case of B1, the binding [1] is reported as “binds” and the binding [2] is reported as “binds”.
